Data published in the supplement of paper PMC7661543.
The effect of the compound repeats well; differences between the knockouts mostly do not.

Experiments:
Assay in all cases: relative cell number vs DMSO control (72 h) (% of DMSO); higher = less growth inhibition (more cells)
MDA-MB-231 = system: MDA-MB-231
Experimental: (§1)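 QMAP-Seq: a pool of 5 breast cancer cell lines (ZR-75-1, SKBR3, HCC-38, MDA-MB-231, BT-20), each carrying 12 doxycycline-inducible Cas9 sgRNA perturbations (11 knockouts plus non-targeting sgNT), was treated with compounds for 72 h at four 10-fold doses (10 nM-10 uM or 1 nM-1 uM range). Barcodes were amplified and sequenced, and cell number was interpolated from 293T spike-in standard curves. The result is expressed as % of the median of DMSO wells. Two biological replicates.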

ZR-75-1 = system: ZR-75-1
Experimental: as §1

SKBR3 = system: SKBR3
Experimental: as §1

C=CC(=O)Nc1cc2c(Nc3ccc(F)c(Cl)c3)ncnc2cc1OCCCN1CCOCC1 [Canertinib]
relative cell number
Conditions	MDA-MB-231	SKBR3	ZR-75-1
sgRNA knockout: sgATF3, 10 nM	116	108	127
sgRNA knockout: sgATF3, 100 nM	77.5	65.6	82.6
sgRNA knockout: sgATF3, 1000 nM	72.3	38.8	85.5
sgRNA knockout: sgATF3, 10000 nM	8.78	21.9	37.5
sgRNA knockout: sgATF4, 10 nM	65.5	98.6	66.9
sgRNA knockout: sgATF4, 100 nM	89	83	99.5
sgRNA knockout: sgATF4, 1000 nM	50	39.1	61.8
sgRNA knockout: sgATF4, 10000 nM	14.2	20.3	55
sgRNA knockout: sgATF6, 10 nM	96.1	98.6	107
sgRNA knockout: sgATF6, 100 nM	122	86.3	74.8
sgRNA knockout: sgATF6, 1000 nM	100	42.7	73.4
sgRNA knockout: sgATF6, 10000 nM	9.05	20	25.5
sgRNA knockout: sgATG7, 10 nM	76.4	88.8	93.1
sgRNA knockout: sgATG7, 100 nM	86.3	55.9	85.9
sgRNA knockout: sgATG7, 1000 nM	67.2	45.5	67.9
sgRNA knockout: sgATG7, 10000 nM	11.8	23.5	30.6
sgRNA knockout: sgERN1, 10 nM	88.3	89	91.3
sgRNA knockout: sgERN1, 100 nM	91.6	65.9	78.2
sgRNA knockout: sgERN1, 1000 nM	88.1	46.8	76.6
sgRNA knockout: sgERN1, 10000 nM	6.65	27.8	39.1
sgRNA knockout: sgHSF1, 10 nM	88.7	91.4	–
sgRNA knockout: sgHSF1, 100 nM	80.3	77.6	–
sgRNA knockout: sgHSF1, 1000 nM	84	35.8	–
sgRNA knockout: sgHSF1, 10000 nM	12.4	29	–
sgRNA knockout: sgHSF2, 10 nM	79.8	77.2	104
sgRNA knockout: sgHSF2, 100 nM	87.5	63.3	81.9
sgRNA knockout: sgHSF2, 1000 nM	81	41.8	71.9
sgRNA knockout: sgHSF2, 10000 nM	15.6	25.7	37.4
sgRNA knockout: sgKEAP1, 10 nM	103	89	–
sgRNA knockout: sgKEAP1, 100 nM	75.2	63	–
sgRNA knockout: sgKEAP1, 1000 nM	73.4	43	–
sgRNA knockout: sgKEAP1, 10000 nM	10.4	21.2	–
sgRNA knockout: sgNFE2L2, 10 nM	90.9	84.5	99.3
sgRNA knockout: sgNFE2L2, 100 nM	99.3	85.5	58.8
sgRNA knockout: sgNFE2L2, 1000 nM	70.3	40.4	78.2
sgRNA knockout: sgNFE2L2, 10000 nM	10.8	18.8	36.6
sgRNA knockout: sgSLC35F2, 10 nM	76.3	89	51.9
sgRNA knockout: sgSLC35F2, 100 nM	94.9	68.6	24.2
sgRNA knockout: sgSLC35F2, 1000 nM	78.9	39	50.7
sgRNA knockout: sgSLC35F2, 10000 nM	13.3	29.3	36.3
sgRNA knockout: sgXBP1, 10 nM	87.4	97	99.5
sgRNA knockout: sgXBP1, 100 nM	75.1	77	98.4
sgRNA knockout: sgXBP1, 1000 nM	69.7	33.8	73.3
sgRNA knockout: sgXBP1, 10000 nM	8.37	27.5	35.4
